Reference: PubChem BioAssay AID1159578 (Peter MacCallum Cancer Centre, 2015)
Shown is a random part of about 18,000 deposited reagents. About 1,030 of all reagents (5.7%) count as active. 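Inactive calls also include pools with fewer than 3300 nuclei, whose migration was not assessed.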 The raw values are shown without normalisation. Entries without a mark were called inactive. Further read-outs or replicates are left out here.

Assay: 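Knock-downs that alter how fast lymphatic endothelial cells migrate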 (primary screen)
Cells: human lymphatic endothelial cells
Knock-down reagent: siRNA pool against human genes, 40 nM
Timing: 48 h after transfection
Read-out: 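Cells stained with dye and imaged after a scratch; covered wound area and nuclei counted, duplicates averaged, migration set against mock wells and turned into a robust z-score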
Direction: migration robust z-score: higher = faster migration into the scratch; nuclei per well: higher = more cells in the well
Hit rule: 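Pools averaging fewer than 3300 nuclei are never called; remaining pools count as changed when migration robust z lies outside -2 to 2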
Calls: active = migration changed; inactive = no migration change, or too few cells

With knock-down of RCCD1, the screen gave migration robust z-score -0.36; migration class with cell-count check migration z between -2 and 2; enough cells; nuclei per well, duplicate mean 4980. With knock-down of DNAAF3, the screen gave migration robust z-score -0.99; migration class with cell-count check migration z between -2 and 2; enough cells; nuclei per well, duplicate mean 7402. Silencing of GSDMC resulted in: migration robust z-score 0.16; migration class with cell-count check migration z between -2 and 2; enough cells; nuclei per well, duplicate mean 6100. Depletion of LAGE3 resulted in: migration robust z-score -0.73; migration class with cell-count check migration z between -2 and 2; enough cells; nuclei per well, duplicate mean 5185. ELOVL7 showed migration robust z-score -0.08; migration class with cell-count check migration z between -2 and 2; enough cells; nuclei per well, duplicate mean 5764. For VPS39 the deposit lists migration robust z-score 0.15; migration class with cell-count check migration z between -2 and 2; enough cells; nuclei per well, duplicate mean 6028.

Depletion of CORO1A resulted in: migration robust z-score 1.46; migration class with cell-count check migration z between -2 and 2; enough cells; nuclei per well, duplicate mean 5827. For CALCRL the deposit lists migration robust z-score -0.05; migration class with cell-count check migration z between -2 and 2; enough cells; nuclei per well, duplicate mean 8075. For ALKAL1, the values are migration robust z-score -0.78; migration class with cell-count check migration z between -2 and 2; enough cells; nuclei per well, duplicate mean 6828. For INPP5E the deposit lists migration robust z-score -0.8; migration class with cell-count check migration z between -2 and 2; enough cells; nuclei per well, duplicate mean 5056. Depletion of DUSP21 gave: migration robust z-score 0.94; migration class with cell-count check migration z between -2 and 2; enough cells; nuclei per well, duplicate mean 6253. Depletion of FRZB came out at: migration robust z-score 0.64; migration class with cell-count check migration z between -2 and 2; enough cells; nuclei per well, duplicate mean 5279.

With knock-down of GGA3, the record shows migration robust z-score 1.23; migration class with cell-count check migration z between -2 and 2; enough cells; nuclei per well, duplicate mean 5146. Silencing of PIN1 came out at: migration robust z-score -1.04; migration class with cell-count check migration z between -2 and 2; enough cells; nuclei per well, duplicate mean 4917. PIAS2 scored migration robust z-score 0.44; migration class with cell-count check migration z between -2 and 2; enough cells; nuclei per well, duplicate mean 5809. Against OR9I1, the entry reads migration robust z-score 0.62; migration class with cell-count check migration z between -2 and 2; enough cells; nuclei per well, duplicate mean 6080. Against HTR6, the entry reads migration robust z-score -0.68; migration class with cell-count check migration z between -2 and 2; enough cells; nuclei per well, duplicate mean 5928. AKAP10 scored migration robust z-score 1.97; migration class with cell-count check migration z between -2 and 2; enough cells; nuclei per well, duplicate mean 5615.

With knock-down of LYSMD1, the screen gave migration robust z-score 2.07 (active); migration class with cell-count check migration z above 2; enough cells; nuclei per well, duplicate mean 6326. KCNJ4 showed migration robust z-score -0.47; migration class with cell-count check migration z between -2 and 2; enough cells; nuclei per well, duplicate mean 4568. After knock-down of C1orf87, the record shows migration robust z-score -2.4 (active); migration class with cell-count check migration z below -2; enough cells; nuclei per well, duplicate mean 4491. For PXDNL the deposit lists migration robust z-score 0.36; migration class with cell-count check migration z between -2 and 2; enough cells; nuclei per well, duplicate mean 5060. After knock-down of DPP3, the record shows migration robust z-score 2.08 (active); migration class with cell-count check migration z above 2; enough cells; nuclei per well, duplicate mean 5256. For DLGAP1-AS1, the entry reads migration robust z-score -0.1; migration class with cell-count check migration z between -2 and 2; enough cells; nuclei per well, duplicate mean 5731.

MRPS16 scored migration robust z-score 0.26; migration class with cell-count check migration z between -2 and 2; enough cells; nuclei per well, duplicate mean 5514. After knock-down of POMK, the screen gave migration robust z-score -2.42 (active); migration class with cell-count check migration z below -2; enough cells; nuclei per well, duplicate mean 3739. For MATCAP2, the entry reads migration robust z-score 0.34; migration class with cell-count check migration z between -2 and 2; enough cells; nuclei per well, duplicate mean 6210.
